{
  "sequences": {"note": "Chains of the proteins cited; added tags and fusions are not shown.", "UniProt Q13464": "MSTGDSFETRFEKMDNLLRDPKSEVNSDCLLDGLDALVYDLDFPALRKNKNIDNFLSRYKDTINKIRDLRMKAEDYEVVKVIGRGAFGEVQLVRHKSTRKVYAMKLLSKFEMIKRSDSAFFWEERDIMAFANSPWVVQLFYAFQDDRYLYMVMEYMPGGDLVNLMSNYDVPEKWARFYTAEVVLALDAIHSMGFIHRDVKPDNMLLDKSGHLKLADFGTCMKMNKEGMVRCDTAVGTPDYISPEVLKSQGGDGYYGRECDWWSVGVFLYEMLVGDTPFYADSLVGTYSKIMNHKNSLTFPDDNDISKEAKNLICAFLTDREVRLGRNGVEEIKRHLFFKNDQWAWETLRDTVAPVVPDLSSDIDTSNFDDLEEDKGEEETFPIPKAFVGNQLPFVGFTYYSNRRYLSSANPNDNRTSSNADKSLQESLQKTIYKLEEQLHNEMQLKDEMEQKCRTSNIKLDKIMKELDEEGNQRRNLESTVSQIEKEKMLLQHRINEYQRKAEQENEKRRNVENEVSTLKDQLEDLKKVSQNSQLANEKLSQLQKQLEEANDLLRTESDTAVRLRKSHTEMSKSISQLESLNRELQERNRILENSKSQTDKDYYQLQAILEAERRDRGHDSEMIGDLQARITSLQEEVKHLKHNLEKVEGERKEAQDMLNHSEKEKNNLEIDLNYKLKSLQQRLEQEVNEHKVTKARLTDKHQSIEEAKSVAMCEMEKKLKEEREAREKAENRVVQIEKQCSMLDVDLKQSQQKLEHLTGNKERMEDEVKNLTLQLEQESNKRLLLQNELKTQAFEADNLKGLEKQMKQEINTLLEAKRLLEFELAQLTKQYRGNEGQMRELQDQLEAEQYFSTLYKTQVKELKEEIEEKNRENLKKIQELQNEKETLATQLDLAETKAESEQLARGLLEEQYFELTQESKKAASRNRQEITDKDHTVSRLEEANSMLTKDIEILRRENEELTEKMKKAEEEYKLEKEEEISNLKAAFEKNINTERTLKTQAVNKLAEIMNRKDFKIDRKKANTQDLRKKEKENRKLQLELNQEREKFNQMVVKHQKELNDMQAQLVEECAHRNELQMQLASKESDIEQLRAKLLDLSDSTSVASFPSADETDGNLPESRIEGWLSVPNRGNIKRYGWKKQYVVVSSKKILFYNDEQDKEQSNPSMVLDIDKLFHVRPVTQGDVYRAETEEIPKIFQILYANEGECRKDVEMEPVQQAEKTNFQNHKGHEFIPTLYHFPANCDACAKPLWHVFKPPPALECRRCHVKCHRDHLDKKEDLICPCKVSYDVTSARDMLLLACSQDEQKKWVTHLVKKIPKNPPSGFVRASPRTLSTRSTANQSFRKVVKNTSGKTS"},
  "source": "paper PMC9637080",
  "binders": {"B1": {"name": "pyridine nucleotide-disulfide oxidoreductase domain 1 (PYROXD1) (enzyme, UniProt Q8WU10 1-500)", "chain": "MEAARPPPTAGKFVVVGGGIAGVTCAEQLATHFPSEDILLVTASPVIKAVTNFKQISKILEEFDVEEQSSTMLGKRFPNIKVIESGVKQLKSEEHCIVTEDGNQHVYKKLCLCAGAKPKLICEGNPYVLGIRDTDSAQEFQKQLTKAKRIMIIGNGGIALELVYEIEGCEVIWAIKDKAIGNTFFDAGAAEFLTSKLIAEKSEAKIAHKRTRYTTEGRKKEARSKSKADNVGSALGPDWHEGLNLKGTKEFSHKIHLETMCEVKKIYLQDEFRILKKKSFTFPRDHKSVTADTEMWPVYVELTNEKIYGCDFIVSATGVTPNVEPFLHGNSFDLGEDGGLKVDDHMHTSLPDIYAAGDICTTSWQLSPVWQQMRLWTQARQMGWYAAKCMAAASSGDSIDMDFSFELFAHVTKFFNYKVVLLGKYNAQGLGSDHELMLRCTKGREYIKVVMQNGRMMGAVLIGETDLEETFENLILNQMNLSSYGEDLLDPNIDIEDYFD"}},
  "target": "Rho-associated kinase 1 (ROCK1) (human (endogenous in LSCC cells)) (UniProt Q13464)",
  "assay": "co-IP; immobilized affinity-purified antibodies (10-75 ug; anti-ROCK1, anti-PYROXD1), immobilized anti-IgG as control; LSCC cell lysate incubated for 1 day at 4 °C; Western blotting",
  "note": "No constants are given. Whether binding was seen depends on the method and setting. In cells and extracts the contact can be indirect. Some results given as binding are weak or reduced against the parent protein; the word gives no strength.",
  "data": [
    {"binder": "B1", "values": [
      {"measurement": "binding", "value": "binds"}
    ]}
  ]
}
